From PMC8522165
These are yes or no findings as the source states them, for the method shown. Binding seen in cells or lysates may run through a third protein. A result given as binding can be weak or reduced; the word gives no strength.

Biological target: insulin-like growth factor 1 receptor (IGF-1R) (human (endogenous in PDLSCs))
Test: co-IP; PDLSC lysate after 7 days of osteogenic induction in 5.5 mmol/L (normal) or 25 mmol/L (high) glucose; IP with rabbit anti-IGF-1R on protein A/G magnetic beads (Pierce kit), blot with anti-SNAI2

B1: Snail Family Transcriptional Repressor 2 (SNAI2) (protein, UniProt O43623 1-268)
chain: MPRSFLVKKHFNASKKPNYSELDTHTVIISPYLYESYSMPVIPQPEILSSGAYSPITVWTTAAPFHAQLPNGLSPLSGYSSSLGRVSPPPPSDTSSKDHSGSESPISDEEERLQSKLSDPHAIEAEKFQCNLCNKTYSTFSGLAKHKQLHCDAQSRKSFSCKYCDKEYVSLGALKMHIRTHTLPCVCKICGKAFSRPWLLQGHIRTHTGEKPFSCPHCNRAFADRSNLRAHLQTHSDVKKYQCKNCSKTFSRMSLLHKHEESGCCVAH
binding: binds
